From PubChem BioAssay AID651803 (National Center for Advancing Translational Sciences (NCATS), 2012)
Fewer than 10 of roughly 1,200 compounds were called active. The call rests on the fitted dose curve; in most records, active means well fitted curve in the direction sought with a large enough effect; inconclusive means small, poorly fitted or top-dose-only effect, or another doubt; inactive means no such curve, though single readings can be large or run the other way. Some of the results follow.

The chains behind the UniProt entries cited, without tags or fusion partners. Where a name states a change or a piece, a line headed by the entry shows the natural chain unless it says otherwise.
UniProt P11308: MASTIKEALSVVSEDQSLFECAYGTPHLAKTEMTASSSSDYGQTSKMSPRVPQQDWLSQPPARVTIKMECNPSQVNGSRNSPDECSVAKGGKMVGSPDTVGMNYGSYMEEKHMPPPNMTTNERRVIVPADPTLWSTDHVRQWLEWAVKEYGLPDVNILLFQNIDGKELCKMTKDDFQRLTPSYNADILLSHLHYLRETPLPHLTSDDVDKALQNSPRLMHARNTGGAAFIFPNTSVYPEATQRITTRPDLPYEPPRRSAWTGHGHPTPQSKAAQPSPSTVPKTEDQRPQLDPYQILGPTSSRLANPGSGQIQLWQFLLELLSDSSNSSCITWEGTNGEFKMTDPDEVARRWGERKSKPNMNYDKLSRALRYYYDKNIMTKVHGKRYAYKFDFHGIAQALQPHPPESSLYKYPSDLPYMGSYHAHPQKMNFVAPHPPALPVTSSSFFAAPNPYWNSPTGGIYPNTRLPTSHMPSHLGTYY

What follows are molecules tested against Transcriptional regulator ERG (Homo sapiens) (UniProt P11308) (assay: qHTS for Small Molecule Inhibitors of the ERG Ets/DNA interaction: TR assay against cherry picks). Conditions: ERG Ets domain-DNA fluorescence polarization, Texas red probe; at 154 µM (top of the series).
In short: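 Polarization read sequentially for fluorescein (ex 480/em 535 nm) and Texas red (ex 555/em 632 nm) probes, 5 nM and 100 nM solutions, displaced from His-ERG Ets domain (1 uM solution), pH 7.5 Tris/KCl/EDTA/DTT buffer.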
Further: % of control where 0% means no effect.

Activity change, negative = inhibition, inactive:
O=C(CNCc1ccc(F)cc1)Nc1ccccc1[N+](=O)[O-] -22%
C=CCOc1ccc(/C=N/NC(=O)C2CCCC2)cc1OCC 5.77%
Cc1ccc([N+](=O)[O-])c2c1C(N1CC(C)OC(C)C1)C(C)(C)O2 (stereo not drawn) 5.79%
C=CCn1c(=O)c2ccccc2n2c(SCc3nc(N)nc(Nc4ccccc4C)n3)nnc12 -11.2%
N#Cc1c(NC(=O)CCCN2C(=O)c3ccccc3C2=O)oc(-c2ccccc2)c1-c1ccccc1 3.5%
CCSc1nc2c(c(=O)[nH]c(=O)n2C)n1CC(O)COc1ccccc1 (stereo not drawn) 3.35%
CC(=O)Nc1ccc(SCC(=O)N(C)C2CCS(=O)(=O)C2)cc1 (stereo not drawn) -0.814%
Oc1ccc(NCc2ccccc2OCc2ccccc2Cl)cc1 -3.49%
COC(=O)[C@H](Cc1ccccc1)NC(=O)Nc1ccc(OC)cc1 1.28%
COc1ccc(Cl)cc1NC(=O)COC(C)=O 12.1%
O=S(=O)(c1ccccc1)c1cnc(-c2cccnc2)nc1-c1ccccc1 4.25%
O=c1ccc2cc(S(=O)(=O)Nc3ccccc3F)ccc2o1 0.772%
O=C1N/C(=C/c2cccs2)C(=O)N1Cc1ccc(F)cc1 12.1%
C[C@H](CO)N1C[C@H](C)[C@@H](CN(C)CC2CC2)Oc2c(NC(=O)C3CC3)cccc2C1=O 1.57%
CCN1CCN(CCCN(Cc2cccs2)C(=S)Nc2ccccc2C)CC1 -20.8%
O=C1/C(=C/c2cccs2)Sc2ccccc21 14.3%
COC(=O)c1ccc(NC(=O)c2cccc(C)c2[N+](=O)[O-])cc1 18.4%
CCOc1ccc(NC(=O)Nc2cccn(Cc3ccccc3)c2=O)cc1 14.5%
CCC(=O)Nc1c(C)ccc2nsnc12 -15.9%
C#CCn1ccc(O)c(Cc2c(F)cccc2Cl)c1=O -6.69%
Clc1ccc(-c2nnc(-c3ccccc3)c(-c3ccccc3)n2)cc1 -9.17%
Cn1c(SCC(=O)N2CCN(C(=O)c3ccco3)CC2)nnc1-c1ccc(NS(C)(=O)=O)cc1 -9.66%
CC1COc2ccccc2N1S(=O)(=O)c1ccc(Cl)cc1 (stereo not drawn) 6.25%
O=C(NCC(=O)N(c1cccc(F)c1)C(C(=O)NC1CCCC1)c1cccnc1)c1cccs1 (stereo not drawn) -5.1%
COc1cc(C(=O)Cc2nc3ccccc3n2C)cc(OC)c1OC -6.52%
CC(C)C(=O)Nc1ccc(C(=O)N/N=C/c2cc(Br)cc(Br)c2O)cc1 -6.65%
COc1cc(CNCc2ccncc2)cc(OC)c1OC -16.6%
CCN1C(=O)CSc2ccc(C(=O)NC3CCCCC3)cc21 1.14%
CCCCN(C(=S)Nc1cccc(SC)c1)C1CCN(C(C)=O)CC1 11.3%
O=C1[C@H]2[C@@H](c3ccc(F)cc3)N3C(=O)N(c4cccc(F)c4)C(=O)[C@@]3(Cc3ccccc3)[C@H]2C(=O)N1C1CCCCC1 -3.19%
Cc1ccc(S(=O)(=O)NC2CCCC(C(=O)O)C2)cc1 (stereo not drawn) -0.865%
Nc1ccc2c3c(cccc13)C(=O)N(c1ccccc1)C2=O 25.2%
CN(C)S(=O)(=O)c1ccc(N2CCCC2)c(C(=O)N2CCC(C(N)=O)CC2)c1 1.97%
O=C(N1CCc2[nH]c3ccccc3c2C1)C(F)(F)F -4.73%
CCOC(=O)CC1COCCN1Cc1cn[nH]c1-c1cc(OC)c(OC)c(OC)c1 (stereo not drawn) 5.39%
O=C(CNC(=S)N(Cc1ccccc1)Cc1cccnc1)NC1CCCCC1 4.54%
CN(CC(=O)OCC(=O)NCC(F)(F)F)S(=O)(=O)c1ccc(Cl)cc1 4.61%
CS(=O)(=O)Nc1ccc(N2CCN(c3ccc(C(F)(F)F)cn3)CC2)nc1 11.5%
CC1(c2ccccc2Cl)NC(=O)N(CC(=O)Nc2ccccc2OC(F)F)C1=O (stereo not drawn) -12.1%
COc1ccc(/C=N/Nc2nnc(Cc3ccc(OC)c(OC)c3)c(=O)[nH]2)cc1OC 0.391%
COc1ccc(N(CC(=O)NCc2ccco2)S(=O)(=O)c2ccc(C)cc2)cc1 -2.7%
CCN(CC(=O)N1CCCCCC1)S(=O)(=O)c1ccc(Cl)cc1 -1.63%
CCN(CC)CCN1C(=O)C2C(C(=O)Nc3cccc(SC)c3)C3C=CC2(O3)C1C(=O)NC1CCCC(C)C1C (stereo not drawn) -8.31%
O=C(NCC1CCCCC1)c1cccc(-c2ccc(O)cc2)c1 -10.7%
CC(Oc1ccc(C(=O)c2ccc(F)cc2)cc1)C(=O)N1CCOCC1 (stereo not drawn) -16%
CCc1nnc2c(N3CCN(c4cccc(C(F)(F)F)c4)CC3)nc3ccccc3n12 -11.3%
O=C(NCc1ccccc1)NCc1cccs1 -1.04%
Cc1cc(C(=O)COC(=O)C23CC4CC(CC(O)(C4)C2)C3)c(C)n1C 4.38%
Cc1ccc(NC(=S)NCc2ccc3c(c2)cc(C)n3C)c(C)c1 1.53%
CCOC(=O)c1oc2ccc(S(=O)(=O)n3nc(-c4ccc(OC)cc4)cc3N)cc2c1C 0.498%
CCn1c(=O)cc(OCC(=O)Nc2ccccc2C#N)c2ccccc21 -0.687%
CC1CCN(S(=O)(=O)c2ccc(Cl)s2)CC1 -5.89%
CC(C)Cc1ccc(C(C)C(=O)O)cc1 (stereo not drawn) -7.6%
O=c1oc2ccccc2cc1-c1cn2cc(Cc3ccc(F)cc3)sc2n1 -9.09%
CCCCNC(=O)CCC(=O)NNc1nc2ccccc2c2nc(C)nn12 14%
O=C(C1CC(=O)N(c2ccc(F)cc2)C1)N1CCC(c2nc3ccccc3[nH]2)CC1 (stereo not drawn) -19.6%
CNc1ccc2c3c(cccc13)C(=O)N(C)C2=O 153%
COc1ccc(C(=O)N(C)Cc2ccc(C)o2)cc1OC1CCN(C(C)C)CC1 1.33%

A draw from above in order of heavy-atom count, low to high.
Activity change, negative = inhibition, inactive:
CC1CCN(S(=O)(=O)c2ccc(Cl)s2)CC1 -5.89%
C=CCOc1ccc(/C=N/NC(=O)C2CCCC2)cc1OCC 5.77%
Oc1ccc(NCc2ccccc2OCc2ccccc2Cl)cc1 -3.49%
COc1cc(C(=O)Cc2nc3ccccc3n2C)cc(OC)c1OC -6.52%
O=C(C1CC(=O)N(c2ccc(F)cc2)C1)N1CCC(c2nc3ccccc3[nH]2)CC1 (stereo not drawn) -19.6%
